From patent publication US10857167B2, “Use of oligosaccharide compositions to enhance weight gain” (Children's Hospital Medical Center, priority 2015, dated 2020)
Further values from the same series stand in other lists.

Test system: distal small bowel gene expression
Experiment: RNA sequencing / transcriptional analysis of small bowel 56 days after ICR (2′-FL signature response)
Type: in vivo, mouse
From the text: Luminal small bowel contents were expressed into AllProtect Tissue Reagent (Qiagen Inc, CA). Bacterial DNA was extracted using the AllPrep DNA/RNA Mini Kit (Qiagen Inc, CA), according to kit instructions and prior to sequencing (described below). Small bowel tissue samples for RNA were placed into RNA Later (Life Technologies, NY). RNA extraction was accomplished following Qiagen RNeasy Plus Kit instruction (Qiagen Inc, CA). All nucleic acid samples were then stored at -80 Celsius until sequenced (described below). Transcriptional analysis was carried out on resected and harvested small bowel samples obtained from operated mice taken to 8 weeks. Murine RNA sequencing libraries were prepared from approximately 1.5 μg RNA using the TruSeq RNA Sample Preparation Kit (Illumina, Calif.) and sequenced using the HiSeq 2000 Sequencing System (Illumina, Calif.) with single-end 50 bp reads. Following removal of primers and barcodes, sequences were aligned to the mm10 genome using reference annotations from UCSC (Rosenbloom et al. (2015) Nucleic acids research 43: […]-681) (n=36,186 entities). Aligned reads were quantified and used to compute reads per kilobase per million mapped reads (RPKM); raw counts were then normalized using the DESeq algorithm and each harvested sample was baselined to its own resected sample. A filter was applied to the data, requiring at least three reads in all samples of at least one of the four experimental conditions (n=14,489 entities). The data discussed in this publication have been deposited in NCBI's Gene Expression Omnibus and are accessible through NCBI Gene Expression Omnibus (GEO) Series accession number GSE72590. Edgar et al. (2002) Nucleic acids research 30: 207-210. In order to characterize the impact of 2'-FL supplementation while accounting for the effect of ileoecal resection, a t-test was applied between resected and harvested samples within control and experimental animals. Significance was set at a p-value of ≤0.05 and a fold change of 3, which generated 2,576 differentially regulated entities across two comparisons. Gene set unions and intersections of the control and experimental gene sets were identified through Venn diagrams. From the master list, the gene list specific to animals supplemented with 2'-FL were removed in order to identify genes differentially regulated only by ICR (n=546 entities); this gene set characterizes the adaptive response. Further, the 2'-FL response (n=2,030 entities) was identified by removing the adaptive response signature described above from the master list, leaving only genes regulated by 2'-FL supplementation after ICR which were not found in the non-supplemented adaptive response. Heatmaps were generated using hierarchical clustering with the Pearson's Centered distance metric and the average linkage rule; both entities and samples were clustered. All genomic analyses described above were performed in Strand NGS (Strand Life Sciences, CA). Gene list functional enrichment was initially discovered using ToppFun, a member of the ToppGene Suite. Chen et al. (2009) Nucleic acids research 37: […]-311. No statistical correction was selected. Gene lists were further analyzed using ClueGO, a plugin for Cytoscape designed to decipher functionally grouped gene ontology and pathway annotation networks. Bindea et al. (2009) Bioinformatics 25: 1091-1093. At the time of data analysis, the annotation files were updated from sources to Jan. 1, 2015. “GO Term Fusion” was enabled to manage ontologic term redundancy and network specificity was set to medium. Results were restricted to pathways with p≤0.05 using Benjamini-Hochberg correction and Kappa scoring was set to 0.4. Biocyc annotations were assigned a rectangle, gene ontology biologic processes were assigned an ellipse, and […] annotations were assigned a diamond shape. No meaning was assigned to size or color. […]

## C[C@@H]1O[C@@H](O[C@H]2[C@H](O[C@H]3[C@H](O)[C@@H](O)C(O)O[C@@H]3CO)O[C@H](CO)[C@H](O)[C@@H]2O)[C@@H](O)[C@H](O)[C@@H]1O (stereo partly shown) [2′-FL, 2′-fucosyllactose]
LOC100503676
  Fold Change (Pre- to Post-op): 3.792
LOC100505179
  Fold Change (Pre- to Post-op): 3.126
LOC101055731
  Fold Change (Pre- to Post-op): 4.557
Lage3
  Fold Change (Pre- to Post-op): 3.426
Lamtor1
  Fold Change (Pre- to Post-op): 3.093
Lamtor5
  Fold Change (Pre- to Post-op): 3.493
Leap2
  Fold Change (Pre- to Post-op): 6.03
Lekr1
  Fold Change (Pre- to Post-op): 3.078
Lrp2bp
  Fold Change (Pre- to Post-op): 4.67
Lrrc48
  Fold Change (Pre- to Post-op): 4.634
Lrrc51
  Fold Change (Pre- to Post-op): 3.949
Lsm1
  Fold Change (Pre- to Post-op): 3.415
Lsm3
  Fold Change (Pre- to Post-op): 3.39
Lsm4
  Fold Change (Pre- to Post-op): 3.12
Lsm5
  Fold Change (Pre- to Post-op): 3.069
Lsm7
  Fold Change (Pre- to Post-op): 4.528
Lsmd1
  Fold Change (Pre- to Post-op): 4.081
Ly6g6f
  Fold Change (Pre- to Post-op): 3.186
Ly6g6d
  Fold Change (Pre- to Post-op): 7.662
Lypla1
  Fold Change (Pre- to Post-op): 3.048
Lyrm2
  Fold Change (Pre- to Post-op): 3.343
Lyrm5
  Fold Change (Pre- to Post-op): 3.146
Mal2
  Fold Change (Pre- to Post-op): 3.012
Map2k3os
  Fold Change (Pre- to Post-op): 3.902
Map3k5
  Fold Change (Pre- to Post-op): −3.002
Map3k12
  Fold Change (Pre- to Post-op): 16.21
Marcksl1-ps4
  Fold Change (Pre- to Post-op): 4.069
Mcfd2
  Fold Change (Pre- to Post-op): 3.275
Mcpt1
  Fold Change (Pre- to Post-op): 7.146
Mcpt2
  Fold Change (Pre- to Post-op): 13.42
Mea1
  Fold Change (Pre- to Post-op): 3.052
Med21
  Fold Change (Pre- to Post-op): 5.251
Med31
  Fold Change (Pre- to Post-op): 3.848
Medag
  Fold Change (Pre- to Post-op): 4.262
Mei1
  Fold Change (Pre- to Post-op): 3.993
Mettl23
  Fold Change (Pre- to Post-op): 3.161
Mff
  Fold Change (Pre- to Post-op): 3.004
Mgst1
  Fold Change (Pre- to Post-op): 3.507
Mgst2
  Fold Change (Pre- to Post-op): 5.061
Mgst3
  Fold Change (Pre- to Post-op): 4.963
Mien1
  Fold Change (Pre- to Post-op): 4.918
Minos1
  Fold Change (Pre- to Post-op): 3.865
Mkks
  Fold Change (Pre- to Post-op): 3.28
Mmp12
  Fold Change (Pre- to Post-op): 5.474
Mmp23
  Fold Change (Pre- to Post-op): 3.213
Mob4
  Fold Change (Pre- to Post-op): 3.208
Mocs2
  Fold Change (Pre- to Post-op): 3.43
Mpc1
  Fold Change (Pre- to Post-op): 3.802
Mrp63
  Fold Change (Pre- to Post-op): 3.647
Mrpl11
  Fold Change (Pre- to Post-op): 4.084
Mrpl12
  Fold Change (Pre- to Post-op): 4.084
Mrpl13
  Fold Change (Pre- to Post-op): 3.376
Mrpl14
  Fold Change (Pre- to Post-op): 5.005
Mrpl24
  Fold Change (Pre- to Post-op): 3.479
Mrpl27
  Fold Change (Pre- to Post-op): 4.04
Mrpl28
  Fold Change (Pre- to Post-op): 3.389
Mrpl33
  Fold Change (Pre- to Post-op): 5.69
Mrpl34
  Fold Change (Pre- to Post-op): 3.007
Mrpl41
  Fold Change (Pre- to Post-op): 3.954
Mrpl46
  Fold Change (Pre- to Post-op): 3.56
Mrpl54
  Fold Change (Pre- to Post-op): 5.196
Mrps16
  Fold Change (Pre- to Post-op): 3.74
Mrps18c
  Fold Change (Pre- to Post-op): 3.662
Mrps23
  Fold Change (Pre- to Post-op): 3.078
Mrps24
  Fold Change (Pre- to Post-op): 3.389
Mrps28
  Fold Change (Pre- to Post-op): 3.249
Mrps33
  Fold Change (Pre- to Post-op): 4.516
Mrps36
  Fold Change (Pre- to Post-op): 3.539
Mterfd3
  Fold Change (Pre- to Post-op): 3.55
Mtfr1
  Fold Change (Pre- to Post-op): 3.153
Mvd
  Fold Change (Pre- to Post-op): 4.11
Mvk
  Fold Change (Pre- to Post-op): 4.061
Mycbpap
  Fold Change (Pre- to Post-op): 3.709
Myeov2
  Fold Change (Pre- to Post-op): 5.372
Myh10
  Fold Change (Pre- to Post-op): −3.009
Myl4
  Fold Change (Pre- to Post-op): 3.522
Myl6
  Fold Change (Pre- to Post-op): 3.193
Myl7
  Fold Change (Pre- to Post-op): 3.733
Mzb1
  Fold Change (Pre- to Post-op): 3.192
Mzt1
  Fold Change (Pre- to Post-op): 3.149
Nat2
  Fold Change (Pre- to Post-op): 3.508
Nat8
  Fold Change (Pre- to Post-op): 3.352
Ncoa3
  Fold Change (Pre- to Post-op): −3.006
Ndufa1
  Fold Change (Pre- to Post-op): 3.64
Ndufa2
  Fold Change (Pre- to Post-op): 3.818
Ndufa4
  Fold Change (Pre- to Post-op): 4.529
Ndufa5
  Fold Change (Pre- to Post-op): 3.233
Ndufa6
  Fold Change (Pre- to Post-op): 3.05
Ndufa11
  Fold Change (Pre- to Post-op): 3.515
Ndufab1
  Fold Change (Pre- to Post-op): 3.404
Ndufaf2
  Fold Change (Pre- to Post-op): 3.197
Ndufaf6
  Fold Change (Pre- to Post-op): 3.393
Ndufb2
  Fold Change (Pre- to Post-op): 5.525
Ndufb3
  Fold Change (Pre- to Post-op): 3.563
Ndufb4
  Fold Change (Pre- to Post-op): 5.083
Ndufb6
  Fold Change (Pre- to Post-op): 5.037
Ndufb8
  Fold Change (Pre- to Post-op): 4.7
Ndufb9
  Fold Change (Pre- to Post-op): 4.496
Ndufb10
  Fold Change (Pre- to Post-op): 3.019
Ndufc1
  Fold Change (Pre- to Post-op): 3.112
Ndufs4
  Fold Change (Pre- to Post-op): 3.807
Ndufs5
  Fold Change (Pre- to Post-op): 3.915
Ndufs8
  Fold Change (Pre- to Post-op): 3.089
Ndufv2
  Fold Change (Pre- to Post-op): 4.047
Nhp2
  Fold Change (Pre- to Post-op): 3.093
Nkain4
  Fold Change (Pre- to Post-op): 7.288
Nme2
  Fold Change (Pre- to Post-op): 4.067
Nme3
  Fold Change (Pre- to Post-op): 3.018
Nqo1
  Fold Change (Pre- to Post-op): 5.83
Nr1h3
  Fold Change (Pre- to Post-op): 3.296
Nr1i3
  Fold Change (Pre- to Post-op): 3.328
Nt5c
  Fold Change (Pre- to Post-op): 3.363
Nubp1
  Fold Change (Pre- to Post-op): 3.093
Nudcd2
  Fold Change (Pre- to Post-op): 3.394
Nudt5
  Fold Change (Pre- to Post-op): 4.278
Nudt7
  Fold Change (Pre- to Post-op): 4.072
Nudt8
  Fold Change (Pre- to Post-op): 3.63
Nudt14
  Fold Change (Pre- to Post-op): 4.061
Oas1c
  Fold Change (Pre- to Post-op): 3.761
Ociad2
  Fold Change (Pre- to Post-op): 3.98
Oxld1
  Fold Change (Pre- to Post-op): 3.743
